# Laboratory results taken from patent US20110281802A1, “COMPOSITION FOR TREATMENT AND PREVENTION OF HAIR LOSS AND PREMATURE GRAYING OF HAIR” (Immudiagnostik AG, priority 2007, published 2011).
# By UniProt entry, the sequences of proteins in these tests, tags left out. Where a name states a change or a piece, a line headed by the entry shows the natural chain unless it says otherwise.
# UniProt P06454: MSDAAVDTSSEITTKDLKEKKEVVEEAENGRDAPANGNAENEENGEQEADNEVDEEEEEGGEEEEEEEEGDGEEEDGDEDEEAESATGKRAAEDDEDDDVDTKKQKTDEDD
# Tested on: human hair follicles
# Test: Thymosin α1 ELISA, amount in human hair follicles (assay #5)
substance,measurement,setting,value
"Thymosin alpha-1 (SDAAVDTSSEITTKDLKEKKEVVEEAEN; Thymosin alpha-1; UniProt P06454 2-29, looked up) [TA1, 28aa thymic peptide which modulates lymphocyte differentiation]",TA1 concentration in hair follicle sample (ELISA),"Sample #5a, extrapolated data",2.604 ng/mL
same,TA1 concentration in hair follicle sample (ELISA),Sample #5b,5.003 ng/mL
same,TA1 concentration in hair follicle sample (ELISA),"Sample #5c, extrapolated data",0.493 ng/mL
